Results taken from PMC6287014.
No constants are given. Whether binding was seen depends on the method and setting. In cells and extracts the contact can be indirect. Some binding calls cover weakened binding; strength is not graded here. For part of these data: Tags and fused reporters may be left off the sequences shown.

What was measured:
[1] = target: T1, endogenous DREAM (mouse (endogenous in mouse brain and N2a cells)) (UniProt Q9QXT8); assay: co-IP; whole cell extracts (200 ug) of N2a cells; IP with 5 ug mouse monoclonal anti-DREAM 1B1, western blot with anti-PS2
T1 sequence: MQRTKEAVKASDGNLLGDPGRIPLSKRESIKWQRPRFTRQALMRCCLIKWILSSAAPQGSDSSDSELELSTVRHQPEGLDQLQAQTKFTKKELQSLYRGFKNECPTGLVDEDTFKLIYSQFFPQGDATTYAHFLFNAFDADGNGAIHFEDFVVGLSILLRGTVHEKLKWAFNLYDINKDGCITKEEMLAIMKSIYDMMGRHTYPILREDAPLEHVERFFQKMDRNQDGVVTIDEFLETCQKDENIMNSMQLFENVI

[2] = target: T1, endogenous DREAM (mouse (endogenous in mouse brain and N2a cells)); assay: co-IP; whole cell extracts (200 ug) of mouse hippocampus and cerebral cortex; IP with 5 ug mouse monoclonal anti-DREAM 1B1, western blot with anti-PS2
Myc-DREAM(71-256) = target: T2, Myc-DREAM(71-256) (UniProt Q9Y2W7); assay: co-IP; whole cell extracts (200 ug) of cotransfected HEK293T cells; IP with 1 ug rabbit anti-Myc, western blot with anti-Flag; 1 mM CaCl2, up to 2 mM EGTA or DMSO in the reaction did not change the band; repaglinide in the reaction significantly reduced it
T2 sequence: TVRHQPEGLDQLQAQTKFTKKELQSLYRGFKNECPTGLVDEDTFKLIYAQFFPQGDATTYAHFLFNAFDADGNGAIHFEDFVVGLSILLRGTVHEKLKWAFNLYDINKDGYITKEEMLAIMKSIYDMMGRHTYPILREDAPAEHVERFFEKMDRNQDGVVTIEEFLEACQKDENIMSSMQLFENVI

Row | binding [1] | binding [2] | binding (Myc-DREAM(71-256)) | Substance
1 | binds | binds | – | full length PS2 holoprotein, endogenous (from UniProt Q61144 1-448)
2 | – | – | binds | Flag-Ct-PS2(335-448) (from UniProt P49810 335-448) (domain or fragment)
